The assay deals with cynomolgus GPRC5D (cynomolgus). The experiment in a line: cell ELISA, CHO cells stably expressing cynomolgus GPRC5D.

Results are given in words; binding and its absence hold for the method and conditions named. Binding calls can cover weak binding; strength is not graded here.

B1: 07A04 IgG (antibody, V domains shown)
VH: QVTLKESGPGILQPSHTLSLTCSFSGFSLSTYGMGVNWIRQPSGKGLEWLASIWWNGNTYNNPSLKSRLTVSKDTSNNQAFLKVTSVDTADTATYYCVHTRGIIRGRGLFFDYWGQGVMVTVSS
VL: DVQMTQSPYNLAASPGESVSINCKASKSISKYLAWYQQKPGKANKLLIYDGSTLQSGIPSRFSGSGSGTDFTLTIRSLEPEDFGLYYCQQHNEYPLTFGSGTKLEIKR
For the molecule B1, the binding result is “binds”.

B2: 5E11-IgG (antibody, V domains shown)
VH: ELQLEQSGGGLVQPGGSLTLSCAASGFTFSKYAMAWVRQAPTKGLEWVASISTGGVNTYYRDSVKARFTISRDNAKNTQYLQMDSLRSEDTATYYCATHTGDYFDYWGQGVMVTVSS
VL: DIVLTQSPALAVSPGQRATISCRASQSVSISGINLMNWYQQKPGQQPKLLIYHASILASGIPTRFSGSGSGTDFTLTIDPVQADDIATYYCQQTRESPLTFGSGTNLEIK
With B2, the binding result is on record as “binds”.

B3: 5F11-IgG (antibody, V domains shown)
VH: EVQLVESGGGLVQPGRSLKLSCAASGFSFSNYGMAWVRQAATKGLEWVASISTGGGNTYYRDSVKGRFIVSRDNAKNTQYLQMDSLRSEDTATYYCTRHDRGGLYWGQGVMVTVSS
VL: DIVMTQAPLSVSVTPGESASISCRSSKSLLHSNGITYVYWYFQKPGKSPQVLIYRMSNLASGVPDRFSGSGSETDFTLKISRVEAEDVGIYHCGQLLENPYTFGAGTELELK
Take B3: the binding result is given as “binds”.

B4: 10B10 IgG (antibody, V domains shown)
VH: EVQLVESGGGLVQPGRSMKLSCAASGFTFTNFYMAWVRQAPTKALEWVASINTGGGYTYYRDSVKGRFTVSRDNTRSTLYLQMDSLRSEETATYYCARHLTYYGRYYYFDYWGQGVMVTVSS
VL: DIQLTQSPHSLSASLGETVSIECLASEGISNYLAWFHQKPGKSPQLLIYYASSLQDGVPSRFSGSGSGTQYSLKISNMQPEDEGVYYCQQGYKYPLTFGSGTKLEIK
B4: the binding entry was “binds”.
